Source: PubChem BioAssay AID504749 (NCATS, 2011).

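Malaria parasite (P. falciparum) lines kept in red blood cells; parasite DNA is measured by SYBR Green fluorescence after lysis, 72 h after compound addition. Each compound was titrated across a series from about 0.000037 to 29 µM. The number is the fitted AC50, the concentration giving a half-maximal change in signal; a lower value means higher potency, whether the curve shows a decrease or an increase. Calls follow the curve class and fit quality: every row here is inconclusive, covering signal-raising curves and weak, poorly fitted, partial or highest-dose-only inhibition curves.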

Values are in µM. Every entry below has the call inconclusive. Only part of the assay is shown, chiefly results filed as inconclusive. A potency from a partial, single-point or poor curve is only a rough figure.

compound,condition,potency (µM),remark
C/C=C1/NN(CCCN2CCN(c3cccc(Cl)c3)CC2)C(=O)N1CCOc1ccccc1,Dd2,5.012,"inhibitor, partial curve"
C/C=C1/NN(CCCN2CCN(c3cccc(Cl)c3)CC2)C(=O)N1CCOc1ccccc1,7G8,10,"inhibitor, partial curve"
C/C=C1/NN(CCCN2CCN(c3cccc(Cl)c3)CC2)C(=O)N1CCOc1ccccc1,DIV17,9.528,"inhibitor, partial curve"
C/C=C1/NN(CCCN2CCN(c3cccc(Cl)c3)CC2)C(=O)N1CCOc1ccccc1,PC26,9.528,"inhibitor, partial curve, poor fit"
C/C=C1/NN(CCCN2CCN(c3cccc(Cl)c3)CC2)C(=O)N1CCOc1ccccc1,CP203,19.01,"inhibitor, single point"
C/C=C1/NN(CCCN2CCN(c3cccc(Cl)c3)CC2)C(=O)N1CCOc1ccccc1,GB4,8.492,"inhibitor, partial curve"
C/C=C1/NN(CCCN2CCN(c3cccc(Cl)c3)CC2)C(=O)N1CCOc1ccccc1,CP291,21.33,"inhibitor, partial curve, poor fit"
Oc1c(I)cc(I)c2cccnc12,N140,17.78,"inhibitor, single point"
Oc1c(I)cc(I)c2cccnc12,CP268,16.94,"inhibitor, single point"
Oc1c(I)cc(I)c2cccnc12,CP305,16.94,"inhibitor, single point"
Oc1c(I)cc(I)c2cccnc12,TAB109,11.22,"inhibitor, single point"
Oc1c(I)cc(I)c2cccnc12,CP217,10,"inhibitor, single point"
Oc1c(I)cc(I)c2cccnc12,PC15,11.22,"inhibitor, single point"
Oc1c(I)cc(I)c2cccnc12,DIV17,13.46,"inhibitor, single point"
Oc1c(I)cc(I)c2cccnc12,DIV30,13.46,"inhibitor, partial curve"
Oc1c(I)cc(I)c2cccnc12,CP211,19.01,"inhibitor, single point"
Oc1c(I)cc(I)c2cccnc12,CP265,17.78,"inhibitor, single point"
Oc1c(I)cc(I)c2cccnc12,ICS,14.13,"inhibitor, single point"
Oc1c(I)cc(I)c2cccnc12,AA1029,11.22,"inhibitor, single point"
Oc1c(I)cc(I)c2cccnc12,PAD,17.78,"inhibitor, single point"
Oc1c(I)cc(I)c2cccnc12,CP252,10,"inhibitor, single point"
Oc1c(I)cc(I)c2cccnc12,GB4,16.94,"inhibitor, single point"
Oc1c(I)cc(I)c2cccnc12,CP215,19.01,"inhibitor, single point"
Oc1c(I)cc(I)c2cccnc12,PC26,19.01,"inhibitor, single point"
Oc1c(I)cc(I)c2cccnc12,3D7,17.78,"inhibitor, single point"
Oc1c(I)cc(I)c2cccnc12,CP329,13.46,"inhibitor, single point"
Oc1c(I)cc(I)c2cccnc12,CP335,13.46,"inhibitor, single point"
Oc1c(I)cc(I)c2cccnc12,CP194,15.1,"inhibitor, single point"
Oc1c(I)cc(I)c2cccnc12,CP185,15.85,"inhibitor, single point"

Some entries from above, unchanged:

With Oc1c(I)cc(I)c2cccnc12 [CP252] the assay gave potency 10 µM (inhibitor, single point).
With Oc1c(I)cc(I)c2cccnc12 [GB4] the assay gave potency 16.94 µM (inhibitor, single point).